Test results published in PMC8739325.
These are yes or no findings as the source states them, for the method shown. Binding seen in cells or lysates may run through a third protein. Some entries that bind do so weakly or less than the wild type.

The chains behind the UniProt entries cited, without tags or fusion partners.
UniProt P35637: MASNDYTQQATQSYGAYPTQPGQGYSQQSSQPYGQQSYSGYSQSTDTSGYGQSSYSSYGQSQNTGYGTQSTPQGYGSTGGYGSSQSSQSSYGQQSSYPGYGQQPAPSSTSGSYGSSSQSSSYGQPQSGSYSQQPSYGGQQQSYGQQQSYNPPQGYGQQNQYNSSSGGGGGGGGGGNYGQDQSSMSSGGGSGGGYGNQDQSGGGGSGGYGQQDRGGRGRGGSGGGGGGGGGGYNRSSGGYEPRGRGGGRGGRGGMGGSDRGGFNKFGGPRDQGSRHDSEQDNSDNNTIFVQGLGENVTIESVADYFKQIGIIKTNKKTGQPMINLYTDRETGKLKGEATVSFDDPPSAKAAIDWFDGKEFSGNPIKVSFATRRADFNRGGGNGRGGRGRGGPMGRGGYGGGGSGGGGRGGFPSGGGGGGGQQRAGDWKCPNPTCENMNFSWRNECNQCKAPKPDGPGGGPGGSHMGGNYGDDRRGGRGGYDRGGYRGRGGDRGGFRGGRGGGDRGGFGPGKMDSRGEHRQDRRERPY

T1: Quaking (QKI), human (human (endogenous in B-SPZ)) (UniProt Q96PU8)
T1 sequence: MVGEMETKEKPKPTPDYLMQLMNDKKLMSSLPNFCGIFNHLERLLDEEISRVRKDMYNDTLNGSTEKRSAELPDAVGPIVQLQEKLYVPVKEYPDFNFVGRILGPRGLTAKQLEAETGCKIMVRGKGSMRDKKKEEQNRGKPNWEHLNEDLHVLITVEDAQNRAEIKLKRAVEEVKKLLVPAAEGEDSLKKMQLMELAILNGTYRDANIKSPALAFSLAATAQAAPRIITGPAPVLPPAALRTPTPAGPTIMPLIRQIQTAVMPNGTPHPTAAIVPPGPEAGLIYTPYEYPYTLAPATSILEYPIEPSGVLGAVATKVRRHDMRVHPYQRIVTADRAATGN


Key:
[1] = target: T1, Quaking (QKI), human (human (endogenous in B-SPZ)); test: co-IP; human B-SPZ lysed in RIPA buffer, sonicated; 500 ug supernatant proteins with 2 ug FUS, QKI or RNApol2 antibody or IgG overnight at 4 °C, Protein A/G PLUS agarose beads, washes in cold TBS pH 7.6; western blot with FUS, QKI and RNApol2 antibodies
[2] = target: Fused protein in Sarcoma (FUS), human (human (endogenous in B-SPZ)) (UniProt P35637); test: as above
[3] = target: Fused protein in Sarcoma (FUS), human (human (endogenous in B-SPZ)) (UniProt P35637); test: co-IP; protein fraction of the RIP assay: human B-SPZ treated in vitro with vehicle (CTRL) or 1 uM ACEA, lysed in RIP lysis buffer (50 mM Tris-HCl pH 7.4, 150 mM NaCl, 5 mM EDTA, 1% NP-40, 0.1% SDS); 5 ug FUS antibody or IgG overnight at 4 °C, Protein A/G PLUS agarose beads; 10% of beads analysed by western blot

binding [1]	binding [2]	binding [3]	Molecule
binds			Fused protein in Sarcoma (FUS), human (from UniProt P35637 1-526)
	binds	binds	Quaking (QKI), human (protein, UniProt Q96PU8 1-341) MVGEMETKEKPKPTPDYLMQLMNDKKLMSSLPNFCGIFNHLERLLDEEISRVRKDMYNDTLNGSTEKRSAELPDAVGPIVQLQEKLYVPVKEYPDFNFVGRILGPRGLTAKQLEAETGCKIMVRGKGSMRDKKKEEQNRGKPNWEHLNEDLHVLITVEDAQNRAEIKLKRAVEEVKKLLVPAAEGEDSLKKMQLMELAILNGTYRDANIKSPALAFSLAATAQAAPRIITGPAPVLPPAALRTPTPAGPTIMPLIRQIQTAVMPNGTPHPTAAIVPPGPEAGLIYTPYEYPYTLAPATSILEYPIEPSGVLGAVATKVRRHDMRVHPYQRIVTADRAATGN
